Source: PubChem BioAssay AID2685 (National Center for Advancing Translational Sciences (NCATS), 2010)
The list shows a part of the results. Further columns of the screen follow, without active or inactive calls. Compounds called inactive in the main read-out are mostly missing here. Words in brackets tell the shape of the fitted curve; partial curves, single points and poor fits give uncertain potencies.

Assay: qHTS Assay for Lipid Storage Modulators in Drosophila S3 Cells;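 for cell number change: cells counted by Cell Tracker Red CMTPX staining in the red channel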
Conditions: BODIPY lipid droplet fluorescence, 18-24 h; for cell number change: measured here: cell count max response, cells fed with added oleic acid
Method in brief: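 Drosophila S3 cells loaded with oleic acid (400 uM, as added) and compounds at several concentrations; lipid droplets imaged by 488-nm laser-scanning cytometry, 500–530 nm intensity and object ratio to cell channel. Percent activity normalized to 20 uM Triacsin C.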

[1] = measured here: lipid fluorescence (Fed channel) AC50, cells fed with added oleic acid
[2] = measured here: cell number channel AC50, cells fed with added oleic acid

Row | Compound | cell number change | AC50 [1] | AC50 [2]
1 | CN(C)/N=C/c1cc([N+](=O)[O-])ccc1O | -19.5% | 0.0291 µM [falling, full curve, poor fit] | 
2 | COc1ccc(C(=O)N2CC(=O)Nc3ccc(C)cc3C2c2ccccc2)cc1 (stereo not given) | -2.78% |  | 
3 | Brc1ccc(OCc2nc(-c3ccccn3)n[nH]2)cc1 |  | 6.51 µM [rising, single point] | 
4 | C/C(CC(=O)Nc1ccc(C)c(Cl)c1)=N\NC(=O)c1ccncc1 | -27.9% |  | 
5 | O=C(Cc1ccc(-n2c(=O)[nH]c3ccsc3c2=O)cc1)N1CCN(c2ccc(Cl)cc2)CC1 | 10.9% | 16.4 µM [rising, single point] | 0.517 µM [rising, full curve]
6 | CCCCCCNC(=O)CC(NS(=O)(=O)c1ccc(NC(C)=O)cc1)C(C)C (stereo not given) | 11% |  | 
7 | Nc1nc(SCC(=O)Nc2ccccc2)nc2nc3c(cc12)CCCC3 | 1.65% | 4.61 µM [rising, single point] | 
8 | COc1ccc(OC(C)C(=O)N2CCc3ccccc3C2)cc1 (stereo not given) | 6.34% | 23.1 µM [rising, partial curve] | 
9 | C=CCNC(=S)N/N=C/c1ccccc1OCCOc1ccccc1 | 11.4% | 0.58 µM [rising, full curve, poor fit] | 
10 | CCn1c(COc2ccc(OC)cc2)nnc1SCc1nc2ccccc2c(=O)[nH]1 | 70.1% | 23.1 µM [rising, single point] | 23.1 µM [rising, single point]
11 | CC(=O)Nn1cnc2c(c1=O)C1(CCCCC1)Cc1ccccc1-2 | 124% | 29.1 µM [rising, single point] | 29.1 µM [rising, single point]
12 | CSc1ccccc1NC(=O)c1ccc(N2CC3CC(C2)c2cccc(=O)n2C3)c(NC(=O)c2ccncc2)c1 (stereo not given) | 12.5% | 6.51 µM [falling, single point] | 
13 | C[C@H](O)c1[nH]c2cc(F)ccc2c1[C@H](C)O | 7.77% |  | 
14 | CCOC(=O)N1CCN(CC(O)c2ccc3cc[nH]c3c2)CC1 (stereo not given) | -30.8% |  | 6.51 µM [falling, single point]
15 | Nc1ccc(S(=O)(=O)NC2=NCCCCC2)cc1N | -12% | 6.51 µM [rising, single point] | 
16 | Cc1cc(=O)[nH]c(SCC2COC3(CCCCC3)O2)n1 (stereo not given) | 15% | 1.3 µM [falling, full curve, poor fit] | 
17 | CC1CCN(S(=O)(=O)c2ccc(NC(=O)Cn3nnc(-c4ccccc4F)n3)cc2)CC1 | -9.35% | 0.411 µM [rising, full curve] | 
18 | CN(Cc1ccc(Br)cc1)C(=O)CCN1C(=O)c2cccc([N+](=O)[O-])c2C1=O | 8.7% | 32.6 µM [falling, partial curve] | 
19 | O=C(CN1C(=O)NC2(CCCC2)C1=O)Nc1cc(Cl)ccc1N1CCOCC1 | 16.5% |  | 
20 | COc1cc2c(cc1NC(=O)CSc1ccc(Cl)cc1)oc1ccccc12 | -0.603% | 1.16 µM [rising, full curve] | 
21 | Cc1ccccc1N1CCN(C2CCCN(C(=O)CCN3CCCCO3)C2)CC1 (stereo not given) | -13.9% | 29.1 µM [rising, single point] | 

Gathered by group, those above containing fluorine.
Row | Compound | cell number change | AC50 [1] | AC50 [2]
13 | C[C@H](O)c1[nH]c2cc(F)ccc2c1[C@H](C)O | 7.77% |  | 
17 | CC1CCN(S(=O)(=O)c2ccc(NC(=O)Cn3nnc(-c4ccccc4F)n3)cc2)CC1 | -9.35% | 0.411 µM [rising, full curve] | 

Next structures follow:

Row | Compound | cell number change | AC50 [1] | AC50 [2]
22 | Cc1ccc(S(=O)(=O)NC(CC(=O)N2CCc3ccccc32)c2ccco2)cc1 (stereo not given) | 8.85% | 14.6 µM [rising, single point] | 
23 | O=C(NNC(=S)NCc1ccccc1)c1ccccc1OC(F)F | 15.3% | 2.59 µM [rising, full curve] | 
24 | CN1C(=O)CS/C1=N\NC(=O)COc1cccc2cccnc12 | -25.8% | 16.4 µM [falling, single point] | 
25 | Cc1ncc(C[n+]2csc(CCOC(=O)CC34CC5CC(CC(C5)C3)C4)c2C)c(N)n1 | -57.2% | 25.9 µM [falling, single point] | 4.61 µM [falling, full curve]
26 | O=C(/C=C/c1ccc(S(=O)(=O)N2CCOCC2)cc1)NC(=S)NCCCn1ccnc1 |  |  | 0.651 µM [rising, full curve, poor fit]
27 | Cc1ccc(NC(=O)COC(=O)/C=C/c2c(C)nn(-c3ccc(F)cc3)c2Cl)cc1F | 6.23% |  | 
28 | CCn1c(=O)cc(OCC(=O)NCCCN2CCC(C)CC2)c2ccccc21 |  |  | 3.66 µM [rising, partial curve, poor fit]
29 | CCOc1ccccc1NC(=O)C(NCCN(C)C)c1ccccc1 (stereo not given) | -20.3% | 8.2 µM [falling, partial curve, poor fit] | 
30 | COC(=O)COc1ccc(S(=O)(=O)Nc2ccc(NC(C)=O)cc2)cc1 |  | 4.11 µM [falling, partial curve] | 
31 | Cc1cccc(N2C(=O)N3[C@@H]4c5ccccc5OC[C@@H]4[C@@H](c4ccccc4)[C@@]3(C)C2=O)c1 | 31.4% |  | 29.1 µM [rising, partial curve, poor fit]
32 | CNc1ncc(C(=O)C(C)(C)C)s1 | 11.9% | 0.13 µM [falling, full curve, poor fit] | 
33 | COc1ccc(-c2oc3ccccc3c2C(=O)Oc2ccccc2)cc1 | 24.3% | 29.1 µM [rising, single point] | 
34 | CNc1c([N+](=O)[O-])cnn1-c1cccc(Cl)n1 | 4.41% | 0.82 µM [falling, single point] | 
35 | O=C(Cn1ncc(Cl)c(Cl)c1=O)N1CCN(S(=O)(=O)c2ccc3ccccc3c2)CC1 | -28.3% | 13 µM [falling, partial curve] | 
36 | Cc1ccc(CCN2C(Nc3ccccc3)=NC[C@@H]2C)cc1 |  | 2.59 µM [falling, partial curve, poor fit] | 
37 | COc1cccc(C(=O)OCCN2CCOCC2)c1 | 18.4% |  | 
38 | CN=C1S/C(=C\c2ccc(N3CCOCC3)cc2C)C(=O)N1C | 6.33% | 0.58 µM [rising, partial curve, poor fit] | 
39 | COc1cccc(-c2nnc(SC(C(=O)c3c[nH]c4ccccc34)c3ccccc3)n2C)c1 (stereo not given) | -7.52% | 1.3 µM [rising, partial curve] | 
40 | COc1ccc(OC)c(C(C)NC(=O)C(C)Cc2ccccc2)c1 (stereo not given) | 0.088% | 32.6 µM [falling, single point] | 
41 | CCN(CC)CCCNc1ccc(-c2nnc(-c3ccc(OCC(C)C)cc3)o2)cn1 | -6.41% |  | 
42 | O=C1C=C(Nc2cccc(Cl)c2)CC(c2ccco2)C1 (stereo not given) | -3.06% | 5.8 µM [rising, single point] | 2.06 µM [rising, partial curve]

Sorted by SMILES length (low to high): 3 of the compounds above
Row | Compound | cell number change | AC50 [1] | AC50 [2]
15 | Nc1ccc(S(=O)(=O)NC2=NCCCCC2)cc1N | -12% | 6.51 µM [rising, single point] | 
24 | CN1C(=O)CS/C1=N\NC(=O)COc1cccc2cccnc12 | -25.8% | 16.4 µM [falling, single point] | 
26 | O=C(/C=C/c1ccc(S(=O)(=O)N2CCOCC2)cc1)NC(=S)NCCCn1ccnc1 |  |  | 0.651 µM [rising, full curve, poor fit]

Continued:

Row | Compound | cell number change | AC50 [1] | AC50 [2]
43 | C/C(=N\NC1=NCCN1)c1ccc(Cl)cc1 | -14.1% | 1.3 µM [falling, full curve, poor fit] | 
44 | c1ccc2c(-c3nnc4n3CCCCC4)c[nH]c2c1 | 1.76% | 20.6 µM [falling, single point] | 
45 | CCCn1cc(C(CC(=O)O)C(=O)O)c2ccccc21 (stereo not given) | 1.17% | 6.51 µM [falling, single point] | 
46 | Cc1ccccc1OCC(=O)NCCN1CCCC1 | 1.35% |  | 
47 | CCN(CC)S(=O)(=O)c1cc(OC)c(Cl)cc1Cl | 6.03% | 29.1 µM [rising, partial curve] | 
48 | O=C(c1cccc([N+](=O)[O-])c1)N1CCN(C(=O)c2ccco2)CC1 | -46.9% |  | 
49 | Nc1c(C(=O)NCc2cccs2)nnn1CC(=O)Nc1cccc(Cl)c1 | -21.3% | 2.06 µM [falling, full curve] | 
50 | Cc1cc2ccccc2c(=O)n1CC(=O)NCC(=O)N1CCN(c2cccc(Cl)c2)CC1 | -15.8% |  | 
51 | CC(C)(C)c1ccc(OCC(=O)NNC(=S)NC(=O)c2ccccc2[N+](=O)[O-])c(Br)c1 | -22.1% |  | 
52 | CC(=O)Nc1ccc(S(=O)(=O)NC2(C(F)(F)F)NC(=O)N(C3CCCCC3)C2=O)cc1 (stereo not given) | -39.9% | 0.00651 µM [falling, full curve, poor fit] | 0.0231 µM [falling, full curve, poor fit]
53 | O=C(c1ccc(OCC2CCCO2)cc1)N1CCc2ccccc2C1 (stereo not given) | -5.55% |  | 3.66 µM [falling, single point]
54 | Cn1c(CC(=O)Nc2ccccc2F)nnc1SCC(=O)Nc1ccccc1Br | -6.58% |  | 
55 | COC(=O)c1sc(=S)n(-c2ccccc2)c1N |  | 0.146 µM [falling, full curve] | 
56 | Cc1nn(-c2ccccc2)c2nc(-c3ccncc3)cc(C(=O)NCc3ccco3)c12 | 57.6% | 16.4 µM [rising, partial curve] | 7.31 µM [rising, partial curve]
57 | CC(=O)c1ccc(N2CC(C)(C)C2=O)cc1 | -36.8% | 8.2 µM [falling, single point] | 0.116 µM [falling, full curve]
58 | Cc1sc(NC(=O)c2ccco2)nc1-c1ccc2c(c1)CC(C)N2C(=O)C1CC1 (stereo not given) | -17% |  | 
59 | COc1ccccc1C(=O)Nc1ccc2c(c1)n(C)c(=O)n2C | -30.7% | 2.59 µM [rising, partial curve] | 29.1 µM [falling, single point]
60 | C=CCNC(=S)N(Cc1ccccc1)Cc1ccccc1 | 16.4% | 14.6 µM [rising, partial curve] | 
61 | Cc1cccc(NC(=O)c2cccc3c2C(=O)c2ccccc2-3)c1 | -16.4% | 18.4 µM [falling, partial curve] | 
62 | Cc1oc2ccc(O)c(CN3CCOCC3)c2c1C(=O)c1ccc(Cl)cc1 | -34.4% |  | 5.17 µM [falling, full curve]
63 | COc1ccc(C(=O)Nc2cccc(C(=O)NCc3ccccc3)c2)cc1 |  | 29.1 µM [falling, partial curve, poor fit] | 0.0291 µM [falling, full curve, poor fit]
